Experimental findings from paper PMC8380221 are described below.

Assay [1] deals with T1, SUCROSE NO… 1-RELATED PROTEIN KINASE 1A fused to the GAL4 DNA-binding domain (rice (Oryza sativa L.)) (UniProt Q852Q2).
T1 sequence: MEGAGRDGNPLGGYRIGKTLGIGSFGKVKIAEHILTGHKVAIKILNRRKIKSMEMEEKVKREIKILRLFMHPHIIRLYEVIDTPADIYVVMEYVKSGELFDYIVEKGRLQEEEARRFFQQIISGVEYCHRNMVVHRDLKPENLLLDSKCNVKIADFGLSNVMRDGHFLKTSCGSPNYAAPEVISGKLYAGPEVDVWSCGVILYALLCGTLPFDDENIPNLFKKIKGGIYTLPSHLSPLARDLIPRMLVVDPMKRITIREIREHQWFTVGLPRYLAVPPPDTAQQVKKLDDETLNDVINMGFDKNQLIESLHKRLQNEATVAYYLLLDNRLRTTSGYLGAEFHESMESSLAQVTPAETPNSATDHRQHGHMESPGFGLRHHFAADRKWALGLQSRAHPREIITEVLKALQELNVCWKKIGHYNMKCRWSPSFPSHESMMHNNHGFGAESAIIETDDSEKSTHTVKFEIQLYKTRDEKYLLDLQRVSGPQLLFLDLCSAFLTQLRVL
Briefly: two-hybrid; yeast AH109; OsFLZ-AD (pGADT7) with SnRK1A-BD (pGBKT7); growth on SD/-Trp/-Leu/-His/-Ade.

The target in assay [2] is T1, SUCROSE NO… 1-RELATED PROTEIN KINASE 1A fused to the GAL4 DNA-binding domain (rice (Oryza sativa L.)). Briefly: two-hybrid; yeast AH109; OsFLZ-AD (pGADT7) with SnRK1A-BD (pGBKT7); growth on SD/-Trp/-Leu/-His with 1 mM 3-AT.
Assay [3] deals with T2, SnRK1A-nYFP (rice (Oryza sativa L.)) (UniProt Q852Q2).
T2 sequence: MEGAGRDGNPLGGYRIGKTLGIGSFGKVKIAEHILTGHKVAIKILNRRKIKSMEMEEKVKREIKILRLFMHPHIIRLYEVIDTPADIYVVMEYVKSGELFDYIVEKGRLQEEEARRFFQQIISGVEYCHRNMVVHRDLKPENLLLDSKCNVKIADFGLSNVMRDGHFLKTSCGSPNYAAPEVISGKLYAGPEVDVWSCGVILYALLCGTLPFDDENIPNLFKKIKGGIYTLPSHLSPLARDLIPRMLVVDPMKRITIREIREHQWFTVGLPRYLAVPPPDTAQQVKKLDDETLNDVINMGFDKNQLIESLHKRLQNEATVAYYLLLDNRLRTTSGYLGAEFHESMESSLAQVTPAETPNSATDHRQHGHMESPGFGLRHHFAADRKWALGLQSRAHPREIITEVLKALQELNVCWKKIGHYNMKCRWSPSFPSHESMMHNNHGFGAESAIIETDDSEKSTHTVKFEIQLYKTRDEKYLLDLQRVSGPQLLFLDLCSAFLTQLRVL
Briefly: split reporter; BiFC: SnRK1A-nYFP and OsFLZ18-cYFP transiently co-expressed in Nicotiana benthamiana leaves, 72 h, confocal microscopy.

Assay [4] has as its target GST-tagged OsFLZ18 (rice (Oryza sativa L.)). Briefly: pull-down; GST or GST-OsFLZ18 on GST-resin incubated with His-SnRK1A in 50 mM Tris-HCl, 150 mM NaCl, 1 mM EDTA, 1% NP-40 at 4 °C overnight; immunoblot with anti-GST and anti-His. On the technique in general: Immunoblotting shows a protein as a band on a membrane.

No constants are given. Whether binding was seen depends on the method and setting. A result given as binding can be weak or reduced; the word gives no strength. Tags and fused reporters may be left off the sequences shown. For some of these results: In cells and extracts the contact can be indirect.

In the case of “OsFLZ2 fused to the GAL4 activation domain (rice (Oryza sativa L.))”, the binding entry in assay [1] was “binds”.

With “OsFLZ5 fused to the GAL4 activation domain (rice (Oryza sativa L.))”, the binding entry in assay [1] is on record as “binds”.

“OsFLZ6 fused to the GAL4 activation domain (rice (Oryza sativa L.))”: the binding result in assay [1] is recorded as “binds”.

Turning to “OsFLZ10 fused to the GAL4 activation domain (rice (Oryza sativa L.))”, in assay [2], the binding entry was “binds”.

In the case of “OsFLZ11 fused to the GAL4 activation domain (rice (Oryza sativa L.))”, the binding entry in assay [1] is recorded as “binds”.

On to “OsFLZ18 fused to the GAL4 activation domain (rice (Oryza sativa L.))”, for which, in assay [1], the binding result was “binds”.

On to OsFLZ18-cYFP (rice (Oryza sativa L.)), for which the binding result in assay [3] is “binds”.

For the molecule “OsFLZ20 fused to the GAL4 activation domain (rice (Oryza sativa L.))”, in assay [1], the binding entry is on record as “binds”.

As for “OsFLZ27 fused to the GAL4 activation domain (rice (Oryza sativa L.))”, the binding result in assay [2] is “binds”.

B1: His-tagged SnRK1A (enzyme, UniProt Q852Q2 1-505)
chain: MEGAGRDGNPLGGYRIGKTLGIGSFGKVKIAEHILTGHKVAIKILNRRKIKSMEMEEKVKREIKILRLFMHPHIIRLYEVIDTPADIYVVMEYVKSGELFDYIVEKGRLQEEEARRFFQQIISGVEYCHRNMVVHRDLKPENLLLDSKCNVKIADFGLSNVMRDGHFLKTSCGSPNYAAPEVISGKLYAGPEVDVWSCGVILYALLCGTLPFDDENIPNLFKKIKGGIYTLPSHLSPLARDLIPRMLVVDPMKRITIREIREHQWFTVGLPRYLAVPPPDTAQQVKKLDDETLNDVINMGFDKNQLIESLHKRLQNEATVAYYLLLDNRLRTTSGYLGAEFHESMESSLAQVTPAETPNSATDHRQHGHMESPGFGLRHHFAADRKWALGLQSRAHPREIITEVLKALQELNVCWKKIGHYNMKCRWSPSFPSHESMMHNNHGFGAESAIIETDDSEKSTHTVKFEIQLYKTRDEKYLLDLQRVSGPQLLFLDLCSAFLTQLRVL
For the molecule B1, the binding result in assay [4] is on record as “binds”.
